In publication PMC3540053:
Substitutions are numbered along the chain they refer to. Results are given in words; binding and its absence hold for the method and conditions named.

T1: OsCOI2 (Oryza sativa) (UniProt Q84QA7)
T1 sequence: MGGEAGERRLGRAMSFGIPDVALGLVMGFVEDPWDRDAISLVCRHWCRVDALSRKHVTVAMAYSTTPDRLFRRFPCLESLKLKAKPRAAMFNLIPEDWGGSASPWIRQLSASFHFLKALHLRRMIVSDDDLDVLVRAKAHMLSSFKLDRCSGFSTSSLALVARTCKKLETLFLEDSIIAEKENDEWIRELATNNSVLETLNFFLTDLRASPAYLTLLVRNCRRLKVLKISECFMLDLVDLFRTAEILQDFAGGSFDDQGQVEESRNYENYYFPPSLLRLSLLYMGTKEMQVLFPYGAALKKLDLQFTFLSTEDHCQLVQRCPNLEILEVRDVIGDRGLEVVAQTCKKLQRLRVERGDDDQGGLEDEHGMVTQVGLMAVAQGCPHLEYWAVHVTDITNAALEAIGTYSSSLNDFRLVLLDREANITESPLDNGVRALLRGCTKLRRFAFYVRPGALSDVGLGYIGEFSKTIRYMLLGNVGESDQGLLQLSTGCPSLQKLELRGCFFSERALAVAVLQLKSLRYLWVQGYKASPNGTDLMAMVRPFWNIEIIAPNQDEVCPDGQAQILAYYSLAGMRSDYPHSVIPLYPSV

T2: OsCOI2(N477Y) (Oryza sativa) (UniProt Q84QA7)
T2 sequence: T1 sequence with N477Y

T3: OsCOI2(F91Y) (Oryza sativa) (UniProt Q84QA7)
T3 sequence: T1 sequence with F91Y

B1: OsJAZ5 (protein, UniProt Q84R94 1-228)
chain: MASAKSGERGSSSFAMACSLLSRYVRQNGAAAGELGLGIRGEADANKGKETMELFPQNSGFGSEAAAVKETPDAREQEKRQLTIFYGGKVLVFDDFPAEKAKDLMQMASKSSSTAQNCVLLPSSATATVADNTKVSAVPAPASALPVAQANAPKPVRPNAADLPQARKASLHRFLEKRKDRLQAKAPYQGSPSDASPVKKELQESQPWLGLGPQVAAPDLSLRQESSQ
B2: OsJAZ6 (protein, UniProt Q8H395 1-244)
chain: MAASARPVGVGGERATSFAMACSLLSRYVRQNGAAAAELGLGIRGEGEAPRAAPATMSLLPGEAERKKETMELFPQSAGFGQQDAITADSAADAREQEPEKRQLTIFYGGKVLVFNDFPADKAKGLMQLASKGSPVAPQNAAAPAPAAVTDNTKAPMAVPAPVSSLPTAQADAQKPARANASDMPIARKASLHRFLEKRKDRLNAKTPYQASPSDATPVKKEPESQPWLGLGPNAVVKPIERGQ
B3: OsJAZ8 (protein, UniProt Q6ES51 1-416)
chain: MERDFLGAIGKDEEQRRHAEERKESDYFGAGGGAAAAAMDWSFASRAALMSFRSSSSAAAAAAREETRELAFPHFSALDGAKMQQASHVLARQKSFGAESHGIPQYAAAAAVHGAHRGQPPHVLNGARVIPASSPFNPNNPMFRVQSSPNLPNAVGAGGGAFKQPPFAMGNAVAGSTVGVYGTRDMPKAKAAQLTIFYAGSVNVFNNVSPEKAQELMFLASRGSLPSAPTTVARMPEAHVFPPAKVTVPEVSPTKPMMLQKPQLVSSPVPAISKPISVVSQATSLPRSASSSNVDSNVTKSSGPLVVPPTSLPPPAQPETLATTTAAAIMPRAVPQARKASLARFLEKRKERVTTVAPYPLAKSPLESSDTMGSANDNKSSCTDIALSSNRDESLSLGQPRTISFCEESPSTKLQI
B4: OsJAZ9 (protein, UniProt Q6ZJU3 1-427)
chain: MERDFLGAIWRKEEAAGKPEEHSDYRGGGGGASAAMQWQFPATKVGAASSAFMSFRSSAAAAREEDPKEAAVFDRFSLSGFRPPPRPSPGDAFDGAAAMKQRQFGFNGRQQYAAAAQHGHREQGVDSYGVAAPHHFPSPSPSPRHPVPFGHANPMLRVHSLPNVAGGSPYRNQSFSVGNSVAGSTVGVYGGPRDLQNPKVTQMTIFYDGLVNVFDNIPVEKAQELMLLASRASIPSPPSAARKSDSPISAAAKLTVPEALPARQIVVQKPEASVPLVSGVSNPITIVSQAVTLPKSFSSSNDSAGPKSGGLPLAVTPLSQASPSQPIPVATTNASAIMPRAVPQARKASLARFLEKRKERVSSVAPYPSSKSPLESSDTIGSPSTPSKSSCTDITPSTNNCEDSLCLGQPRNISFSSQEPPSTKLQI
B5: JAZ4 (protein, UniProt Q58G47 1-310)
chain: MERDFLGLGSKLSPITVKEETNEDSAPSRGMMDWSFSSKVGSGPQFLSFGTSQQETRVNTVNDHLLSSAAMDQNQRTYFSSLQEDRVFPGSSQQDQTTITVSMSEPNYINSFINHQHLGGSPIMAPPVSVFPAPTTIRSSSKPLPPQLTIFYAGSVLVYQDIAPEKAQAIMLLAGNGPHAKPVSQPKPQKLVHHSLPTTDPPTMPPSFLPSISYIVSETRSSGSNGVTGLGPTKTKASLASTRNNQTAAFSMAPTVGLPQTRKASLARFLEKRKERVINVSPYYVDNKSSIDCRTLMSECVSCPPAHHLH
B6: JAZ7 (protein, UniProt O64687 1-148)
chain: MIIIIKNCDKPLLNFKEMEMQTKCDLELRLLTSSYDSDFHSSLDESSSSEISQPKQESQILTIFYNGHMCVSSDLTHLEANAILSLASRDVEEKSLSLRSSDGSDPPTIPNNSTRFHYQKASMKRSLHSFLQKRSLRIQATSPYHRYR
B7: JAZ8 (protein, UniProt Q8LBM2 1-131)
chain: MKLQQNCDLELRLFPTSYDSDSSDTTSVVESTSSGNPQPNEESQRITIFYNGKMCFSSDVTHLQARSIISIASREMKTKSSSNGSDPPNKSTSFHHNQLPNPKASMKKSLQSFLQKRKIRIQATSPYHSRR
B8: JAZ9 (protein, UniProt Q8W4J8 1-267)
chain: MERDFLGLSDKQYLSNNVKHEVNDDAVEERGLSTKAAREWGKSKVFATSSFMPSSDFQEAKAFPGAYQWGSVSAANVFRRCQFGGAFQNATPLLLGGSVPLPTHPSLVPRVASSGSSPQLTIFYGGTISVFNDISPDKAQAIMLCAGNGLKGETGDSKPVREAERMYGKQIHNTAATSSSSATHTDNFSRCRDTPVAATNAMSMIESFNAAPRNMIPSVPQARKASLARFLEKRKERLMSAMPYKKMLLDLSTGESSGMNYSSTSPT
B9: JAZ10 (protein, UniProt Q93ZM9 1-197)
chain: MSKATIELDFLGLEKKQTNNAPKPKFQKFLDRRRSFRDIQGAISKIDPEIIKSLLASTGNNSDSSAKSRSVPSTPREDQPQIPISPVHASLARSSTELVSGTVPMTIFYNGSVSVFQVSRNKAGEIMKVANEAASKKDESSMETDLSVILPTTLRPKLFGQNLEGDLPIARRKSLQRFLEKRKERLVSTSPYYPTSA
B10: JAZ11 (protein, UniProt Q9M246 1-238)
chain: MAEVNGDFPVPSFADGTGSVSAGLDLLVERSIHEARSTEPDASTQLTIIFGGSCRVFNGVPAQKVQEIIRIAFAGKQTKNVTGINPALNRALSFSTVADLPIARRRSLQRFLEKRRDRSTKPDGSMILPSQLTIIFGGSFSVFDGIPAEKVQEILHIAAAAKATETINLTSINPALKRAISFSNASTVACVSTADVPIARRRSLQRFFEKRRHRFVHTKPYSATTSEADKNETSPIVT
B11: OsJAZ1 (protein, UniProt Q7XEZ1 1-171)
chain: MAAAGSSSRFAVTCGLLSQYMRERQQPQPPVTVLEAVAEEEEEEDARTMQLFPPRAAAADGVATPSAGTAPLTIFYDGRMVVVDDVPVEKAAELMRLAGSACSPPQPAHAAALPEMPIARKASLQRFLQKRKHRITTTSEPYKKAAVASPAPEKSFAVAPVKDEPATWLGL

What follows are binders tested against T1, OsCOI2 (Oryza sativa) (assay: two-hybrid; OsCOIs as baits in pGBKT7, OsJAZs or JAZs as preys in pGADT7, co-transformed into S. cerevisiae AH109; growth on SD without Ade, His, Leu and Trp (QDO) with 100 µM coronatine, 7 days; graded strong (+++), medium (++), weak (+), undetectable (−)).

binding, no binding:
B1
B2
B3
B4
B5
B6
B7
B8
B9
B10

The binders below were run against T2, OsCOI2(N477Y) (Oryza sativa) in the same assay as above.

binding, no binding:
B1
B3
B4
B11

These binders were tested against T3, OsCOI2(F91Y) (Oryza sativa) in the same assay as above.

binding, no binding:
B1
B3
